PubChem BioAssay AID1508587 | Peter MacCallum Cancer Centre | 2020
The deposit covers about 1,600 reagents; this is a random part of them. 623 of them (39%) count as active. 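Calls are for each duplex; lactate ratios contain extreme outliers.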 The numbers tell different reagents against one gene apart. No sequences are given here.

- Aim: 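Knockdowns that add to vemurafenib's cut in melanoma glycolysis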 (follow-up of hits)
- System: human WM266.4 melanoma cells with a BRAF V600 mutation
- Reagents: single siRNA against human genes, 25 nM
- Time to read-out: 96 h
- Challenge: vemurafenib 300 nM (about IC25), given 48 h after transfection for 48 h
- Measured: 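Medium lactate read by absorbance over DAPI-counted nuclei; ratio with versus without vemurafenib, set against non-targeting siRNA, averaged over 2 replicates; cell number also recorded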
- Scale: lactate per cell, drug vs no drug: higher = less drug-induced drop in lactate per cell; lactate per cell with vemurafenib: higher = more lactate per cell under drug; lactate per cell without drug: higher = more lactate per cell without drug; cell growth with vemurafenib and cell growth without drug: higher = more cell growth over 48 h
- Active means: 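Enhancer call for any duplex whose drug versus no-drug per-cell lactate ratio is below 0.55 (2 SD beneath non-targeting average); genes confirmed when at least 2 of their 4 duplexes qualify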

gene knocked down | reagent no. | lactate per cell, drug vs no drug | lactate per cell with vemurafenib | lactate per cell without drug | cell growth with vemurafenib | cell growth without drug | activity call
POMT2 | 1 | 0.64 | 1.94 | 1.96 | 0.16 | 0.12 | inactive
POMT2 | 2 | 0.64 | 2.7 | 2.72 | 0.21 | 0.18 | inactive
POMT2 | 3 | 0.55 | 1.58 | 1.87 | 0.08 | 0.16 | inactive
POMT2 | 4 | 0.58 | 1.02 | 1.15 | 0.19 | 0.35 | inactive
PHACTR3 | 1 | 0.54 | 0.86 | 1.14 | 0.61 | 0.68 | active
PHACTR3 | 2 | 0.53 | 1.08 | 1.46 | 0.27 | 0.33 | active
PHACTR3 | 3 | 0.57 | 1.8 | 2.27 | 0.13 | 0.18 | inactive
PHACTR3 | 4 | 0.62 | 1.1 | 1.28 | 0.8 | 0.59 | inactive
SOCS4 | 1 | 0.5 | 0.95 | 1.12 | 1.03 | 0.98 | active
SOCS4 | 2 | 0.55 | 1.36 | 1.46 | 0.9 | 0.62 | inactive
SOCS4 | 3 | 0.51 | 1.26 | 1.46 | 0.61 | 0.52 | active
SOCS4 | 4 | 0.59 | 1.11 | 1.1 | 0.9 | 0.81 | inactive
CPLANE1 | 1 | 0.7 | 1.5 | 1.52 | 0.08 | 0.37 | inactive
CPLANE1 | 2 | 0.46 | 1.09 | 1.69 | 0.26 | 0.27 | active
CPLANE1 | 3 | 0.67 | 1.33 | 1.43 | 0.73 | 0.68 | inactive
CPLANE1 | 4 | 0.68 | 1.18 | 1.22 | 0.25 | 0.23 | inactive
BCAR3 | 1 | 0.61 | 9.66 | 11 | -0.21 | -0.16 | inactive
BCAR3 | 2 | 0.31 | 0.79 | 1.67 | -0.03 | -0.03 | active
BCAR3 | 3 | 0.39 | 1.4 | 2.59 | 0.42 | 0.24 | active
BCAR3 | 4 | 0.55 | 0.89 | 1.06 | 0.41 | 0.26 | inactive
ATF6 | 1 | 0.6 | 1.8 | 1.92 | 0.05 | 0.03 | inactive
ATF6 | 2 | 0.48 | 0.74 | 1.02 | 0.64 | 0.79 | active
ATF6 | 3 | 0.3 | 0.31 | 0.67 | 0.86 | 0.87 | active
ATF6 | 4 | 0.48 | 1.56 | 2.12 | 0.01 | -0.08 | active
TRAPPC9 | 1 | 0.1 | 0.06 | 0.37 | 0.01 | 0.04 | active
TRAPPC9 | 2 | 0.64 | 1.4 | 1.53 | 0.42 | 0.32 | inactive
TRAPPC9 | 3 | 0.64 | 1.5 | 1.58 | 0.8 | 0.33 | inactive
TRAPPC9 | 4 | -0.14 | -0.08 | 0.41 | 0.35 | 0.5 | active
SELENOF | 1 | 0.44 | 1.13 | 1.64 | 0.13 | 0.12 | active
SELENOF | 2 | 0.55 | 1.01 | 1.18 | 0.75 | 0.54 | inactive
SELENOF | 3 | 0.56 | 1.47 | 1.65 | 0.26 | 0.33 | inactive
SELENOF | 4 | 0.46 | 0.98 | 1.31 | 0.15 | 0.37 | active
VCX3B | 1 | 0.52 | 1.26 | 1.76 | 0.18 | 0.22 | active
VCX3B | 2 | 0.64 | 1.42 | 1.6 | 0.37 | 0.22 | inactive
VCX3B | 3 | 0.7 | 1.02 | 1.06 | 0.87 | 0.85 | inactive
VCX3B | 4 | 0.4 | 0.86 | 1.54 | 0.04 | 0 | active

Reformatted: entries from further up
{"gene knocked down":"SELENOF","reagent no.":2,"lactate per cell, drug vs no drug":0.55,"lactate per cell with vemurafenib":1.01,"lactate per cell without drug":1.18,"cell growth with vemurafenib":0.75,"cell growth without drug":0.54,"activity call":"inactive"}
{"gene knocked down":"SELENOF","reagent no.":3,"lactate per cell, drug vs no drug":0.56,"lactate per cell with vemurafenib":1.47,"lactate per cell without drug":1.65,"cell growth with vemurafenib":0.26,"cell growth without drug":0.33,"activity call":"inactive"}
{"gene knocked down":"SELENOF","reagent no.":4,"lactate per cell, drug vs no drug":0.46,"lactate per cell with vemurafenib":0.98,"lactate per cell without drug":1.31,"cell growth with vemurafenib":0.15,"cell growth without drug":0.37,"activity call":"active"}
